For the assay, the system named is BDF1 mice, Adenocarcinoma 755 s.c., tumor weight T/C. The experiment in a line: NCI In Vivo Anticancer Drug Screen. Data for tumor model Adenocarcinoma 755 (subcutaneous) in B6D2F1 (BDF1) mice. The settings on record: T/C endpoint: mean tumor weight, higher T/C = larger tumour; for T/C: evaluated on day 12. The essentials: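 Tumor-bearing mice receive test compound while controls get vehicle alone. Antitumor effect is scored from survival or tumor dimensions as a T/C quotient.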

The mark [1] stands for this setting: dose: 120.0 mg/kg/injection, schedule: Q01DX011 (ip), vehicle: carboxymethylcellulose (CMC).
[2] abbreviates: dose: 25.0 mg/kg/injection, schedule: Q01DX011 (ip), vehicle: methylcellulose (MC).
Setting [3] is: dose: 200.0 mg/kg/injection, schedule: Q01DX011 (ip), vehicle: carboxymethylcellulose (CMC).
[4] abbreviates: dose: 8.0 mg/kg/injection, schedule: Q01DX011 (ip), vehicle: methylcellulose (MC).
Where [5] appears, read: dose: 30.0 mg/kg/injection, schedule: Q01DX011 (ip), vehicle: carboxymethylcellulose (CMC).

For 22 compounds, T/C and survivor count results are on record in PubChem BioAssay AID180 (DTP/NCI, 2004).

The list shows only some results of the screen, not a fair sample: it gathers tests that were run many times, whatever their T/C, doses with no T/C, and many T/C values between a quarter and a half above the control. Other doses and runs of a compound stand elsewhere. T/C: endpoint of the treated group in % of that of the vehicle group. Schedules are NCI's codes, taken here to give the interval after Q, in days (D) or hours (H), and the number of doses after X. Some T/C values carry the count of animals alive at the toxicity check (mostly the fifth day); without a count, all were alive then. Some entries hold several experiments; the values are given in rising order. Some schedules carry Z or #; the key to these is not given. Some entries give survivors of the animals treated and no T/C: the source holds a T/C of zero for them, seemingly a mark for toxic or unscored doses. Counts of survivors are from the toxicity check (mostly the fifth day) where no day follows; animals may have died later.

As for `CC(=O)OCC1OC(n2cnc3c(=O)[nH]cnc32)CC1OC(C)=O` (configuration not stated), the T/C under setting [1] was 128 % of control.

For `Nc1nc2ncc(CNc3ccc(C(=O)NC(CCC(=O)O)C(=O)O)cc3)nc2c(=O)[nH]1` (configuration not stated), the T/C (dose: 22.24 mg/kg/injection, schedule: Q01DX011 (ip), vehicle: carboxymethylcellulose (CMC)) is 137 % of control. Moreover, the survivor count is 3 of 10 (dose: 55.6 mg/kg/injection, schedule: Q01DX011 (ip), vehicle: carboxymethylcellulose (CMC)); 2 of 10 and 6 of 10 (dose: 69.5 mg/kg/injection, schedule: Q01DX011 (ip), vehicle: carboxymethylcellulose (CMC)); 5 of 10 (dose: 70.0 mg/kg/injection, schedule: Q01DX011 (ip), vehicle: carboxymethylcellulose (CMC)).

For `Nc1n[se]nc1C(=O)O`, the survivor count (dose: 1.5 mg/kg/injection, schedule: Q01DX011 (ip), vehicle: carboxymethylcellulose (CMC)) was 5 of 10; the survivor count (dose: 2.0 mg/kg/injection, schedule: Q01DX011 (ip), vehicle: carboxymethylcellulose (CMC)) was 0 of 10; the survivor count (dose: 3.0 mg/kg/injection, schedule: Q01DX011 (ip), vehicle: carboxymethylcellulose (CMC)) is reported as 0 of 10.

Regarding `CCCn1cnc2c(SCc3ccccc3F)nc(N)nc21`, the survivor count under setting [2] was 5 of 10.

Turning to `CNc1nc(N)nc(Nc2ccc(I)cc2)c1N=O`, the T/C under setting [3] is 129 % of control [9 of 10 alive]. Besides, the survivor count (dose: 500.0 mg/kg/injection, schedule: Q01DX011 (ip), vehicle: carboxymethylcellulose (CMC)) is 1 of 10.

`NNc1nncc2ccccc12`: the survivor count is, setting by setting: (dose: 150.0 mg/kg/injection, schedule: Q01DX011 (ip), vehicle: carboxymethylcellulose (CMC)) 0 of 10; (dose: 300.0 mg/kg/injection, schedule: Q01DX011 (ip), vehicle: carboxymethylcellulose (CMC)) 0 of 10.

Consider `Cc1ccc(N2CCN(CCCN3CCN(c4ccc(Cl)cc4)CC3)CC2)cc1`, for which the survivor count (dose: 12.5 mg/kg/injection, schedule: Q01DX011 (ip), vehicle: methylcellulose (MC)) is listed as 4 of 10 and the survivor count under setting [2] was 5 of 10.

As for `Cn1c(=O)c2[nH]c(CCl)nc2n(C)c1=O`, the T/C (dose: 75.0 mg/kg/injection, schedule: Q01DX011 (ip), vehicle: methylcellulose (MC)) was 127 % of control [9 of 10 alive]. For the same compound, the survivor count (dose: 225.0 mg/kg/injection, schedule: Q01DX011 (ip), vehicle: methylcellulose (MC)) was 2 of 10.

Take `O=C1[O][Sb]23[O]C(=O)C([O]2)C(O)C(O)C2[O][Sb]4([O]C(=O)C([O]4)C(O)C(O)C1[O]3)[O]C2=O` (configuration not stated): the survivor count (dose: 160.0 mg/kg/injection, schedule: Q01DX011 (ip), vehicle: methylcellulose (MC)) was 3 of 10 and 6 of 10.

Turning to `Cn1c(=O)c2[nH]c(/N=N/N3CCN(CCO)CC3)nc2n(C)c1=O`, for the setting “dose: 25.0 mg/kg/injection, schedule: Q01DX011 (ip), vehicle: other”, the T/C is 126 % of control.

In the case of `Nc1cccc2c(=O)[nH][nH]c(=O)c12`, the survivor count (dose: 375.0 mg/kg/injection, schedule: Q01DX011 (ip), vehicle: water) is listed as 6 of 10.

As to `C=CC(O)CN1CC1(C)C` (configuration not stated) (tested in a mixture with another compound), the T/C (dose: 7.5 mg/kg/injection, schedule: Q01DX011 (ip), vehicle: methylcellulose (MC)) is 130 % of control.

Turning to `C=CCSc1nc(N)nc2nc[nH]c12`, the survivor count was 4 of 10 and 5 of 10 (dose: 1.0 mg/kg/injection, schedule: Q01DX011 (ip), vehicle: methylcellulose (MC)); 3 of 10 (dose: 2.0 mg/kg/injection, schedule: Q01DX011 (ip), vehicle: methylcellulose (MC)); 3 of 10 (dose: 4.0 mg/kg/injection, schedule: Q01DX011 (ip), vehicle: methylcellulose (MC)); 2 of 10 under setting [4]; 5 of 10 (dose: 64.0 mg/kg/injection, schedule: Q01DX011 (ip), vehicle: methylcellulose (MC)). Under setting [4], the T/C is 3, 5, 7 % of control [9 of 10 alive].

Turning to `O=C(CCBr)N1CCN(C(=O)CCBr)CC1`, the survivor count (dose: 45.0 mg/kg/injection, schedule: Q01DX011 (ip), vehicle: methylcellulose (MC)) is on record as 4 of 10; the survivor count (dose: 90.0 mg/kg/injection, schedule: Q01DX011 (ip), vehicle: carboxymethylcellulose (CMC)) is 4 of 10 and 5 of 10.

In the case of `CCCSc1ncnc2nc[nH]c12`, the T/C by setting is: (dose: 0.25 mg/kg/injection, schedule: Q01DX011 (ip), vehicle: alcohol) 137 % of control; (dose: 0.5 mg/kg/injection, schedule: Q#A X022 (ip), vehicle: alcohol) 145 % of control. In addition, the survivor count reads like this: (dose: 1.25 mg/kg/injection, schedule: Q#A X022 (ip), vehicle: alcohol) 6 of 10; (dose: 10.0 mg/kg/injection, schedule: Q01DX011 (im), vehicle: alcohol) 0 of 10; (dose: 15.0 mg/kg/injection, schedule: Q#A X022 (ip), vehicle: alcohol) 6 of 10; (dose: 20.0 mg/kg/injection, schedule: Q01DX011 (im), vehicle: alcohol) 0 of 10; (dose: 50.0 mg/kg/injection, schedule: Q01DX001 (ip), vehicle: alcohol) 5 of 10; (dose: 100.0 mg/kg/injection, schedule: Q01DX001 (ip), vehicle: alcohol) 1 of 10. Also, the survivor count (dose: 200.0 mg/kg/injection, schedule: Q01DX001 (ip), vehicle: alcohol) was 6 of 10.

Take `COC(=O)C1(N)CCCC1`: the survivor count is 5 of 10 under setting [3] and 1 of 10 (dose: 400.0 mg/kg/injection, schedule: Q01DX011 (ip), vehicle: carboxymethylcellulose (CMC)).

`COc1ccccc1NC(=O)CSC(N)=O`: the survivor count reads like this: (dose: 500.0 mg/kg/injection, schedule: Q01DX011 (ip), vehicle: methylcellulose (MC)) 3 of 10; (dose: 800.0 mg/kg/injection, schedule: Q01DX011 (ip), vehicle: carboxymethylcellulose (CMC)) 0 of 10.

Turning to `O=C1C(=O)C(Cl)=C(Cl)C(Cl)=C1Cl`, under setting [5], the T/C was 139 % of control [9 of 10 alive].

As for `CC1=C(O)c2ccccc2C(=O)C1=O`, the survivor count (dose: 200.0 mg/kg/injection, schedule: Q01DX011 (ip), vehicle: other) was 1 of 10.

Consider `CO[C@H](C(=O)[C@@H](O)[C@@H](C)O)[C@@H]1Cc2cc3cc(OC4CC(OC5CC(O)C(O)C(C)O5)C(O)C(C)O4)c(C)c(O)c3c(O)c2C(=O)[C@H]1OC1CC(OC2CC(OC3CC(C)(O)C(O)C(C)O3)C(O)C(C)O2)C(O)C(C)O1` (some centres not stated), for which the survivor count is reported as 2 of 10 (dose: 0.75 mg/kg/injection, schedule: Q01DX011 (ip), vehicle: water); 1 of 10 (dose: 1.5 mg/kg/injection, schedule: Q01DX011 (ip), vehicle: water); 0 of 10 (dose: 2.0 mg/kg/injection, schedule: Q01DX011 (ip), vehicle: saline).

On to `C[C@]12CCC(=O)C=C1CC[C@H]1[C@@H]3CC[C@](O)(C(=O)CF)[C@@]3(C)C[C@H](O)[C@@]12F`, for which the survivor count (dose: 112.0 mg/kg/injection, schedule: Q01DX011 (sc), vehicle: steroid suspending solution) is recorded as 5 of 10.

Consider `Nc1nc(=S)c2ncn(C3CCCO3)c2[nH]1` (configuration not stated), for which the survivor count is reported as 0 of 10 under setting [5]; 0 of 10 (dose: 60.0 mg/kg/injection, schedule: Q01DX011 (ip), vehicle: carboxymethylcellulose (CMC)); 0 of 10 under setting [1]; 0 of 10 (dose: 240.0 mg/kg/injection, schedule: Q01DX011 (ip), vehicle: carboxymethylcellulose (CMC)).
